Test [1] deals with Flag-HIF1A (UniProt Q16665). Kind of test: co-IP; anti-Flag immunoprecipitation from 293T cells transfected with Flag-HIF1A, HA-HSC70 and gradient pk-Myc-C11orf54 for 48 h; IgG as negative control.
The target of test [2] is T1, C11orf54 (chromosome 11 open reading frame 54) (human (endogenous in PLC/PRF/5)) (UniProt Q9H0W9).
T1 sequence: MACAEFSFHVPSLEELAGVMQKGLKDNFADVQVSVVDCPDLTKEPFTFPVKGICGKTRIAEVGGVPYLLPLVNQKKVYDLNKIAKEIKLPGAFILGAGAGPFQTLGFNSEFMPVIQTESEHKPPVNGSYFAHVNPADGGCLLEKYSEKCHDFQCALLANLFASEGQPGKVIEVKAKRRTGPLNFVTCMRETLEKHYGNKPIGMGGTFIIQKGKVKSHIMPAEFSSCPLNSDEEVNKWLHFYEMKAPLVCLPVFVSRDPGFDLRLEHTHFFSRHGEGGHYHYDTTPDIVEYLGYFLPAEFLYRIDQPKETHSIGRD
Description: co-IP; endogenous; anti-C11orf54 immunoprecipitation from PLC/PRF/5 whole-cell lysates, immunoblot; IgG as negative control. A general note: In western blotting, separated proteins are transferred to a membrane and probed.

Protein sequences, listed by entry. Tags and fused reporters are not part of them.
UniProt Q16665: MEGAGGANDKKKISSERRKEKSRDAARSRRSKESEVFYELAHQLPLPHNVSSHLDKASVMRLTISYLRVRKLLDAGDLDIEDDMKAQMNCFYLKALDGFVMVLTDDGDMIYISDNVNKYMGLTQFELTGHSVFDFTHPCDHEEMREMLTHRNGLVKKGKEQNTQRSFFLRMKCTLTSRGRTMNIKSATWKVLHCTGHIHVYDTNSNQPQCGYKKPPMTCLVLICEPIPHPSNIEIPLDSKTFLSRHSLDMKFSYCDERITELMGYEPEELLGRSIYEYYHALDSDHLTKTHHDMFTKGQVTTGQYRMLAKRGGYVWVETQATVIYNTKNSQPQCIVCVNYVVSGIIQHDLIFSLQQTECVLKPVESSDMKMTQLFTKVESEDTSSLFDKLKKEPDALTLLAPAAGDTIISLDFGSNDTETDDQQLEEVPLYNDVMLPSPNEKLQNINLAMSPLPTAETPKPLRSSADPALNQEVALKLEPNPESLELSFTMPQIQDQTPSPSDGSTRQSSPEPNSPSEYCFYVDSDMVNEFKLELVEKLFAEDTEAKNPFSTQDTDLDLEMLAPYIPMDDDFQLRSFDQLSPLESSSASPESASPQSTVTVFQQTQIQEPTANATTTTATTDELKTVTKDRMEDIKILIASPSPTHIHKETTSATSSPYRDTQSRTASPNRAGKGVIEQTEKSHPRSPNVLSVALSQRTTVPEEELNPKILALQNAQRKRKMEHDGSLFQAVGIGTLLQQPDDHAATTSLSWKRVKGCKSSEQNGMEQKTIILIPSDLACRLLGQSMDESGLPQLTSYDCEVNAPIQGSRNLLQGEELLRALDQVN
UniProt P11142: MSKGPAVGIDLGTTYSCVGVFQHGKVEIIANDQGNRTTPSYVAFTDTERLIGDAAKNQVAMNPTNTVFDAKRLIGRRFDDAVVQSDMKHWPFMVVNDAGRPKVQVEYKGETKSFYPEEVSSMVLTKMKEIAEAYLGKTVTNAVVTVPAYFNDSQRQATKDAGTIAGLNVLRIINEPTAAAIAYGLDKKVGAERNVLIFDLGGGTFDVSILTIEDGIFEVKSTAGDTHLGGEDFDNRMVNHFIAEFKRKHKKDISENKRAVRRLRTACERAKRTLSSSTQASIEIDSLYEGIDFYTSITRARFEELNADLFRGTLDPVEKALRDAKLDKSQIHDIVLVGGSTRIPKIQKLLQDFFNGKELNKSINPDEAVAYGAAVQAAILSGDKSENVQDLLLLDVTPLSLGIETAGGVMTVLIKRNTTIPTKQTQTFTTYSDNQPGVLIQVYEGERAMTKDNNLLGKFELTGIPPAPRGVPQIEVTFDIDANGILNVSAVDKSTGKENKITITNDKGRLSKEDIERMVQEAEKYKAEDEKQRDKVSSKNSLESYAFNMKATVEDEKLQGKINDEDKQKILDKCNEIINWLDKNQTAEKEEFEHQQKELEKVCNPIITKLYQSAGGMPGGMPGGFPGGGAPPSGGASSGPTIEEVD

Test [3] addresses Flag-HIF1A (UniProt Q16665). Description: co-IP; anti-Flag immunoprecipitation from 293T cells transfected with Flag-HIF1A or Flag-HIF1A plus pk-Myc-C11orf54 for 48 h; endogenous HSC70 blotted; IgG as negative control.
For test [4], the target named is HIF1A (human (endogenous in PLC/PRF/5)) (UniProt Q16665). Kind of test: co-IP; endogenous; anti-HIF1A immunoprecipitation from PLC/PRF/5 cells (control and C11orf54 knockdown) under control and 100 nM BafA1 treatment for 8 h; IgG as negative control.
The target in another test is HA-HSC70 (UniProt P11142). Description: co-IP; anti-Flag immunoprecipitation from 293T cells transfected with Flag-HIF1A, HA-HSC70 and gradient pk-Myc-C11orf54 for 48 h; IgG as negative control.
The target of test [5] is heat-shock cognate protein of 70 kDa (HSC70) (human (endogenous in 293T)) (UniProt P11142). Kind of test: co-IP; anti-Flag immunoprecipitation from 293T cells transfected with Flag-HIF1A or Flag-HIF1A plus pk-Myc-C11orf54 for 48 h; endogenous HSC70 blotted; IgG as negative control.

These are yes or no findings as the source states them, for the method shown. Binding seen in cells or lysates may run through a third protein. Some results given as binding are weak or reduced against the parent protein; the word gives no strength. For part of these data: Where a sequence is shown, tags or fusion partners need not be part of it.

As to HA-HSC70 (from UniProt P11142 1-646), the binding entry with Flag-HIF1A [1] is “binds”.

Regarding “heat-shock cognate protein of 70 kDa (HSC70) (from UniProt P11142 1-646)”, the binding result (in test [2]; in the test with Flag-HIF1A [3]; in test [4]) was “binds” in each case.

B1: pk-Myc-C11orf54 (protein, UniProt Q9H0W9 1-315)
chain: T1 sequence
On to B1, for which the binding result (in the test with HA-HSC70; in test [5]) was “binds” in each case.

The record behind these values is publication PMC10241914.
